Source: article PMC11218507

Protein sequences, listed by entry. Tags and fused reporters are not part of them.
UniProt Q9SP32: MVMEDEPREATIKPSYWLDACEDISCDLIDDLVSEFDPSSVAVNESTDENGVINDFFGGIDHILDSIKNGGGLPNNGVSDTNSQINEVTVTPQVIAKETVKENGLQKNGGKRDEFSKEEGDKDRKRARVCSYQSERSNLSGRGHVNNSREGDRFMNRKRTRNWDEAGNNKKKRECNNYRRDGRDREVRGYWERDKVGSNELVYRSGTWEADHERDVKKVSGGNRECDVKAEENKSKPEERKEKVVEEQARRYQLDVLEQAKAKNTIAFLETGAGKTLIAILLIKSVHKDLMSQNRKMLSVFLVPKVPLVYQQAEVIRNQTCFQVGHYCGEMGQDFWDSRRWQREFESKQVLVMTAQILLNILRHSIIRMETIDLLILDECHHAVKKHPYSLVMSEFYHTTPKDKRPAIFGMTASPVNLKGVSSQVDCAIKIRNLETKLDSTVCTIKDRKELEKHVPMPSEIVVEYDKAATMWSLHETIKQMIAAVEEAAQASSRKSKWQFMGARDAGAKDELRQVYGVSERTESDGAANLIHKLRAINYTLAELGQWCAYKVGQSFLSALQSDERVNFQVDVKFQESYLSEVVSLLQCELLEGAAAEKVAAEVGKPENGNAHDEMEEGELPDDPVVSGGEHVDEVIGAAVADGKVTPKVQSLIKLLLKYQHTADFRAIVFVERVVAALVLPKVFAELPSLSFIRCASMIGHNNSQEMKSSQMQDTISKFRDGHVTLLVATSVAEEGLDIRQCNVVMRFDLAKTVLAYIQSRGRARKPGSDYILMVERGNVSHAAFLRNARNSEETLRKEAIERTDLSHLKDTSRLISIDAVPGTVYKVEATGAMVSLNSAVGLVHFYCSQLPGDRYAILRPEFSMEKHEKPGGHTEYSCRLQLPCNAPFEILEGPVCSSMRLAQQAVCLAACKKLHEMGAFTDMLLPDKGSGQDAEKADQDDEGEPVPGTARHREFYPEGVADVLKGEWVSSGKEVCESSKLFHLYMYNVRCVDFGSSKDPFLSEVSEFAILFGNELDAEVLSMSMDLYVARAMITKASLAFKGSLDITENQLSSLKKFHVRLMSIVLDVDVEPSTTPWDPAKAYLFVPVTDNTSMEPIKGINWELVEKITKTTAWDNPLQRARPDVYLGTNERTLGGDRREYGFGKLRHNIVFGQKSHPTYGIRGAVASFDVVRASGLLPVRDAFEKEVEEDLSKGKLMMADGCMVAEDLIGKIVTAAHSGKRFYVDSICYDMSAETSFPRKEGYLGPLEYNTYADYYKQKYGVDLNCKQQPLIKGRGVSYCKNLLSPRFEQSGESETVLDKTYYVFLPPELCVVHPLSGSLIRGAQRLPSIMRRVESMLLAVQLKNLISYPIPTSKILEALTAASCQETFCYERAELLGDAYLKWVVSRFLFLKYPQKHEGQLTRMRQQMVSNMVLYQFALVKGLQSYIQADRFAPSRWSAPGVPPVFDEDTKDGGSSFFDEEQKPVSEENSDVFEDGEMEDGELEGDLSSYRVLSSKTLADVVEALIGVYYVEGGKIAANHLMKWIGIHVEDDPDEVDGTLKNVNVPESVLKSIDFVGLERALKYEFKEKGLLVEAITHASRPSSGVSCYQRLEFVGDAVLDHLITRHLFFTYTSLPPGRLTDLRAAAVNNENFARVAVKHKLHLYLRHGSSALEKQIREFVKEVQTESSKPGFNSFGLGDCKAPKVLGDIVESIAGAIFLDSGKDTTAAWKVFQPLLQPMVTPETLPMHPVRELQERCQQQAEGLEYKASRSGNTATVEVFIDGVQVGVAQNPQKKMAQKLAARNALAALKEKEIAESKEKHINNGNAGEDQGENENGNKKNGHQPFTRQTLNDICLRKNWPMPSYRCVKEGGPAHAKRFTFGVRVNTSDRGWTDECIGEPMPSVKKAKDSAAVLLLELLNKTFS

Tests used:
Assay in all cases: split reporter; BiFC with N- and C-terminal regions of mCitrine; coagroinfiltration of N. benthamiana leaves with Fibrillarin-mRFP and p19; confocal microscopy of epidermal cells 3-4 days post-agroinfiltration
[1] = target: T1, N-mCitrine:AtSE (SERRATE, BiFC fusion) (A. thaliana) (UniProt Q9ZVD0)
T1 sequence: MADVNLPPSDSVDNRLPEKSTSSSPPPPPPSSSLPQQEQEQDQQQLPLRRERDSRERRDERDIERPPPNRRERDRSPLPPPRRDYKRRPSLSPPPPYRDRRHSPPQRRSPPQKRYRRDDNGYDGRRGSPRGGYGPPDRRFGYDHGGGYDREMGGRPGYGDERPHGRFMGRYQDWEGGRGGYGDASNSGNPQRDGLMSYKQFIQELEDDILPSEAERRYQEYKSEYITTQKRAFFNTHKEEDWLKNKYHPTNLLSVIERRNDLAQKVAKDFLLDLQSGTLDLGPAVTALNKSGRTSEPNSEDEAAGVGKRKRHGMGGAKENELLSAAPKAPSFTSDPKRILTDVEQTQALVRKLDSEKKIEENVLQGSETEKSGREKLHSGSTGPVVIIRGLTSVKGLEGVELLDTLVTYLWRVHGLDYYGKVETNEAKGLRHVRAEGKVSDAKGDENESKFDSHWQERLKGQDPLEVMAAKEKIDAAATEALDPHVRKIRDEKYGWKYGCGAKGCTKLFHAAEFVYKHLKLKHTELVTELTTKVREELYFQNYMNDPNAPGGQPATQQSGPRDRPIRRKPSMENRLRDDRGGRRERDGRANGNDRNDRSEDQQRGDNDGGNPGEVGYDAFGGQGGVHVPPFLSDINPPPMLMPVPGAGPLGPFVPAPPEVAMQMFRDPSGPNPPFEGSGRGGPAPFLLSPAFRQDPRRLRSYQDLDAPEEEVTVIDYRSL

[2] = target: T2, N-mCitrine:AtHYL1 (HYPONASTIC LEAVES 1, BiFC fusion) (A. thaliana) (UniProt O04492)
T2 sequence: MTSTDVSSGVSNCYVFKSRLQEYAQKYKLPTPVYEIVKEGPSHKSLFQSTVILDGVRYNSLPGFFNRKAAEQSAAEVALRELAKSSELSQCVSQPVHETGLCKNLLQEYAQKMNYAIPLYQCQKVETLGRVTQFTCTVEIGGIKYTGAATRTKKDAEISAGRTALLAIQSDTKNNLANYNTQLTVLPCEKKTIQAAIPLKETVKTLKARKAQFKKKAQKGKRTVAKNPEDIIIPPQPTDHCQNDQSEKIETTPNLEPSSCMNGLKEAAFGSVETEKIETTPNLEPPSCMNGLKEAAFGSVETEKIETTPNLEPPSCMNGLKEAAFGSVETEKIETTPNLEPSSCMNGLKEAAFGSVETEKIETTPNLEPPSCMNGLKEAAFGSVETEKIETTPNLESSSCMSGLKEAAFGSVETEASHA

[3] = target: N-mCitrine:AtDCL1 (DICER-LIKE 1, BiFC fusion) (A. thaliana) (UniProt Q9SP32)

24KW15A (BiFC fusion) (citrus psorosis virus (CPsV))
binding [1]: binds | binding [2]: binds

24KΔC (BiFC fusion) (citrus psorosis virus (CPsV)) (domain or fragment)
binding [1]: binds | binding [2]: binds

24KΔN (BiFC fusion) (from UniProt Q80H97) (domain or fragment)
binding [3]: no binding | binding [1]: binds | binding [2]: binds

24KΔNES (BiFC fusion) (citrus psorosis virus (CPsV))
binding [1]: binds | binding [2]: binds

Results are given in words; binding and its absence hold for the method and conditions named. Binding seen in cells or lysates may run through a third protein. For part of these data: A result given as binding can be weak or reduced; the word gives no strength. For part of these data: Where a sequence is shown, tags or fusion partners need not be part of it.
